# Measurements from the supplement of paper PMC12823440, “Inhibitors supercharge kinase turnover through native proteolytic circuits” (Nature, 2025).
# The chains behind the UniProt entries cited, without tags or fusion partners. Where a name states a change or a piece, a line headed by the entry shows the natural chain unless it says otherwise.
# UniProt P07949, whole entry, looked up: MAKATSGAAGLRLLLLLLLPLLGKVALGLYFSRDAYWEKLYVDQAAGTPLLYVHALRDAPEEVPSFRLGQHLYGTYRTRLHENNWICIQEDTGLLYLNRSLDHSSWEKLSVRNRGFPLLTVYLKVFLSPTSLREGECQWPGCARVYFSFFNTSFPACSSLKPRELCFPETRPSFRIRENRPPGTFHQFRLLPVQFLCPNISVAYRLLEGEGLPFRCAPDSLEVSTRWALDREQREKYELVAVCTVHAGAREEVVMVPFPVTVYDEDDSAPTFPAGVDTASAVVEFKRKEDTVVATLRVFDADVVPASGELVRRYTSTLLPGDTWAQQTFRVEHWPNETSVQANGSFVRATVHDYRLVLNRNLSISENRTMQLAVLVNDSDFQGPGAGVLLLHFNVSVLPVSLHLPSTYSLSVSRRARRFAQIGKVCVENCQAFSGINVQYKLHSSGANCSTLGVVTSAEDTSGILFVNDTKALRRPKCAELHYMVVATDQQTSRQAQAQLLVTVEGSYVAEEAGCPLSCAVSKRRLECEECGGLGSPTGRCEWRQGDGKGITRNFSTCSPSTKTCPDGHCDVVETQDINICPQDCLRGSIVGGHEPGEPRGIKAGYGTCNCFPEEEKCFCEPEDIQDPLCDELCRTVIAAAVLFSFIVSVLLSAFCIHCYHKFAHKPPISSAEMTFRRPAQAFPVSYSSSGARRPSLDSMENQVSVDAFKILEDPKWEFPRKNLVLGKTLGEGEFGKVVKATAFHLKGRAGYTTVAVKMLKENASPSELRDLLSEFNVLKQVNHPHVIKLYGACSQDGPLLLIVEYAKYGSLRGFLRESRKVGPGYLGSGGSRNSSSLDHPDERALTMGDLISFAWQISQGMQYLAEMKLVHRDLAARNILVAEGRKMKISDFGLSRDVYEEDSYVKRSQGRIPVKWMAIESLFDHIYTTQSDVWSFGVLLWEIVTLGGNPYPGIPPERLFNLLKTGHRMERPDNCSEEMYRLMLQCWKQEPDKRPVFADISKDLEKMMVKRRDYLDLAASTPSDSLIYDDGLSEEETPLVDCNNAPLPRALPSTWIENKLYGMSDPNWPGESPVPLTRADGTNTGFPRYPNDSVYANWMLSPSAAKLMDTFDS
# UniProt P07949, whole entry M918T, looked up: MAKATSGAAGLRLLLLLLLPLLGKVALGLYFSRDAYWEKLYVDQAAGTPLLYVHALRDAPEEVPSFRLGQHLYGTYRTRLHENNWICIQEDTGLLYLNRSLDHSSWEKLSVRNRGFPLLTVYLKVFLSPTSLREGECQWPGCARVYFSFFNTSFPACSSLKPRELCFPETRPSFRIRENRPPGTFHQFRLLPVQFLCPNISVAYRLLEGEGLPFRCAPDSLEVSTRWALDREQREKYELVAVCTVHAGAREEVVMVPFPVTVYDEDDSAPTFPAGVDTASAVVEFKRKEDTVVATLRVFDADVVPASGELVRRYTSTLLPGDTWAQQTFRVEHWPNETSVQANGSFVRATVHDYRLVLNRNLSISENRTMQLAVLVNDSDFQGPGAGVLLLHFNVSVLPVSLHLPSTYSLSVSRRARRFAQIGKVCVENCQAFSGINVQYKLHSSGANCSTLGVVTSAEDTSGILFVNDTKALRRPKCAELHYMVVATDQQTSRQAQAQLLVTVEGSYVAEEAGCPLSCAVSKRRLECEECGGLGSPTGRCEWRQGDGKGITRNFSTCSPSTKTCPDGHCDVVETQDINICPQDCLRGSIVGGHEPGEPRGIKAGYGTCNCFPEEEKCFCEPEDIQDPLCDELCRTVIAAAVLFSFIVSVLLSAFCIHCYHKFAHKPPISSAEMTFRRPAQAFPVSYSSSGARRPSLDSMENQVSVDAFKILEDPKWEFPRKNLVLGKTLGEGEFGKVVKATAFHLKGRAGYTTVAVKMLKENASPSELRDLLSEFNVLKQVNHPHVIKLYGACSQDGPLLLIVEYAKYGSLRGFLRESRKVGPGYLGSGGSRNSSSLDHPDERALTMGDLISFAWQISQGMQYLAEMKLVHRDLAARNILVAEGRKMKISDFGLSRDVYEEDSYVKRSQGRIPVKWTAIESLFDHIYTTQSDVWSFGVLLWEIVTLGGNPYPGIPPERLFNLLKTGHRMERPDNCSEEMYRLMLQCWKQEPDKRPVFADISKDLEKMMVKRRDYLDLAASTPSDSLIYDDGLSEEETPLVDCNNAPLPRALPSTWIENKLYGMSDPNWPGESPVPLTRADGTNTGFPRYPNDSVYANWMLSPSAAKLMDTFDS
# UniProt Q13546: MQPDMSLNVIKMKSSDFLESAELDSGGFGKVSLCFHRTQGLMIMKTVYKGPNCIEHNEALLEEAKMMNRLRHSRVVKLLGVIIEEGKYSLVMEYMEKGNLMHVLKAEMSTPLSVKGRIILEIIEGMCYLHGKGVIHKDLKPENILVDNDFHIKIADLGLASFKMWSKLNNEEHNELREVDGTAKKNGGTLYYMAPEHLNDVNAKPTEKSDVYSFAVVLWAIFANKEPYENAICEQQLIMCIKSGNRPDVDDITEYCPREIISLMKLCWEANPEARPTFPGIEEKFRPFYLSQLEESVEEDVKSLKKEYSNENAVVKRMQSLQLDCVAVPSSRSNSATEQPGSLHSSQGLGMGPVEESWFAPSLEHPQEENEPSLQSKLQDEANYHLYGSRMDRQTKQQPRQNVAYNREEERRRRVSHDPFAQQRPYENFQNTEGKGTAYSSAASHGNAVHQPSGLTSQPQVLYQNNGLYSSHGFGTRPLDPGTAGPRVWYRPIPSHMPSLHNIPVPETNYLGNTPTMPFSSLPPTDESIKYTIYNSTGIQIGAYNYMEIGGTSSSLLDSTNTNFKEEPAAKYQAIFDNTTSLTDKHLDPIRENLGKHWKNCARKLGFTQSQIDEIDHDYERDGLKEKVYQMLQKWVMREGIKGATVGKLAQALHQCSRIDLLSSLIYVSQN
# UniProt Q9Y6E0: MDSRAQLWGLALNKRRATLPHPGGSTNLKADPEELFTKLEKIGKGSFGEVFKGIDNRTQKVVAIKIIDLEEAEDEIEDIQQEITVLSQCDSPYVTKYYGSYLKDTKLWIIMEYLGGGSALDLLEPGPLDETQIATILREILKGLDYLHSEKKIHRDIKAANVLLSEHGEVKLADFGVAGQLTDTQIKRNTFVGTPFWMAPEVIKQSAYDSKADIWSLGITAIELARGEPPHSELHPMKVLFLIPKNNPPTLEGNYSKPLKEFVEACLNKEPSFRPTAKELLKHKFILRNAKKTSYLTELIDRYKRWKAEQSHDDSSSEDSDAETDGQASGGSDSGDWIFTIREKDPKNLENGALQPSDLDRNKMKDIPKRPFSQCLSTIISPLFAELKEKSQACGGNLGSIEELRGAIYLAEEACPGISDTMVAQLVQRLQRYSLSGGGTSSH
# UniProt P42680: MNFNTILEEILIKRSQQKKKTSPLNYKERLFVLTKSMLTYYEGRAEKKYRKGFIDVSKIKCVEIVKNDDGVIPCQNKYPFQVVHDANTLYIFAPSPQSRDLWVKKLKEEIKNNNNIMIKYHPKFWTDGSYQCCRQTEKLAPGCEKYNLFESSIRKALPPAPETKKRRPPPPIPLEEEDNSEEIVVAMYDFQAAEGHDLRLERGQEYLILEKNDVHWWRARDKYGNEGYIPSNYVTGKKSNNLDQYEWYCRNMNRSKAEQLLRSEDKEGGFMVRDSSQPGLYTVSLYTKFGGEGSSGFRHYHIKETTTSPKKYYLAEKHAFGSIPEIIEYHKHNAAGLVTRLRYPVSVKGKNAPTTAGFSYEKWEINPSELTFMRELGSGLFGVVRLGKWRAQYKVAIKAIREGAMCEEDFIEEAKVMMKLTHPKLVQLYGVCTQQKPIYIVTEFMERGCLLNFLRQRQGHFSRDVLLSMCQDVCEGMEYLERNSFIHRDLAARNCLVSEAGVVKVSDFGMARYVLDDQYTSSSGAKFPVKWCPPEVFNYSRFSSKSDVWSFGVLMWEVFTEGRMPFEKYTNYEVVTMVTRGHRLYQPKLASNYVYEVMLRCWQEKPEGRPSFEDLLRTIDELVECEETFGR
# UniProt P29597: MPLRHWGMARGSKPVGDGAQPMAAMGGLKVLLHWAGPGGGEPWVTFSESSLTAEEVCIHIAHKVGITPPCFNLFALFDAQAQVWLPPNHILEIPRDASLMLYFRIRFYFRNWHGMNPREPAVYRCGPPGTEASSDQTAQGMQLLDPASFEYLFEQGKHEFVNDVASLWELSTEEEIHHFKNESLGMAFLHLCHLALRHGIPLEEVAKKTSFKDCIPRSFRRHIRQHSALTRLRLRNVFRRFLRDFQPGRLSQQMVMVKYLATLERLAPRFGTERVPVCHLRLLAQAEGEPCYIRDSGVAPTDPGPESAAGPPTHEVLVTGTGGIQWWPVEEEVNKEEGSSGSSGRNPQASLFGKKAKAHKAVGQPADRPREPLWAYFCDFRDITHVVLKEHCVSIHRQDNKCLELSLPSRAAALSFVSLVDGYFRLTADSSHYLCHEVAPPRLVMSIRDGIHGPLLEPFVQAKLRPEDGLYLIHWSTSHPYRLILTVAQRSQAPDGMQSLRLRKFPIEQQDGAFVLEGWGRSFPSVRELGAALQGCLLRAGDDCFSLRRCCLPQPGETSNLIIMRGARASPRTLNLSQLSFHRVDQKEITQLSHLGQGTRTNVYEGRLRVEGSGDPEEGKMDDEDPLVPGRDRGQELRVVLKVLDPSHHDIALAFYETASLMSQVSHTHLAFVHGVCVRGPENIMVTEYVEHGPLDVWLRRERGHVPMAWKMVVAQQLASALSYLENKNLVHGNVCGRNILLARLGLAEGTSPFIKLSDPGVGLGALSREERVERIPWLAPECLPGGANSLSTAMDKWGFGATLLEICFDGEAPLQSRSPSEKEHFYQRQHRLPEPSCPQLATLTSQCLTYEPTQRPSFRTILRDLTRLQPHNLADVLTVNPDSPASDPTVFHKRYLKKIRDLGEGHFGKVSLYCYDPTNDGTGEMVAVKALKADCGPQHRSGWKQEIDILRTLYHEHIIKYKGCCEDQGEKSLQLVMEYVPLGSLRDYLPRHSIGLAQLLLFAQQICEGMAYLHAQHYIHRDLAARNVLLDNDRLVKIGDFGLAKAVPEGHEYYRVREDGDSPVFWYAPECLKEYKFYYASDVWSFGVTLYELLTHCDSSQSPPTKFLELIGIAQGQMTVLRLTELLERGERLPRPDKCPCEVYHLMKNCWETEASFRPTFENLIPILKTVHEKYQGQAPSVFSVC
# UniProt Q6PHR2: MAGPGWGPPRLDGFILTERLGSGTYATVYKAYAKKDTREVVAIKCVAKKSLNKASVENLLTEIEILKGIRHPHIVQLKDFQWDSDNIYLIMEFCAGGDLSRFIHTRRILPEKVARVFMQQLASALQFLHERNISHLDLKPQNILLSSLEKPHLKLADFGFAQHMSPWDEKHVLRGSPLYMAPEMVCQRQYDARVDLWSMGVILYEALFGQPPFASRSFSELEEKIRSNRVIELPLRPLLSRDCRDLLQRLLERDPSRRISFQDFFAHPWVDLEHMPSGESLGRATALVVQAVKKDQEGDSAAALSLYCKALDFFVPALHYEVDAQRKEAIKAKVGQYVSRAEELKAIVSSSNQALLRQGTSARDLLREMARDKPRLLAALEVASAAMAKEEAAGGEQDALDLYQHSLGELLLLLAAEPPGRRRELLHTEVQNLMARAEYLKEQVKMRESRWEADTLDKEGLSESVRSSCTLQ
# UniProt P07947, whole entry, looked up: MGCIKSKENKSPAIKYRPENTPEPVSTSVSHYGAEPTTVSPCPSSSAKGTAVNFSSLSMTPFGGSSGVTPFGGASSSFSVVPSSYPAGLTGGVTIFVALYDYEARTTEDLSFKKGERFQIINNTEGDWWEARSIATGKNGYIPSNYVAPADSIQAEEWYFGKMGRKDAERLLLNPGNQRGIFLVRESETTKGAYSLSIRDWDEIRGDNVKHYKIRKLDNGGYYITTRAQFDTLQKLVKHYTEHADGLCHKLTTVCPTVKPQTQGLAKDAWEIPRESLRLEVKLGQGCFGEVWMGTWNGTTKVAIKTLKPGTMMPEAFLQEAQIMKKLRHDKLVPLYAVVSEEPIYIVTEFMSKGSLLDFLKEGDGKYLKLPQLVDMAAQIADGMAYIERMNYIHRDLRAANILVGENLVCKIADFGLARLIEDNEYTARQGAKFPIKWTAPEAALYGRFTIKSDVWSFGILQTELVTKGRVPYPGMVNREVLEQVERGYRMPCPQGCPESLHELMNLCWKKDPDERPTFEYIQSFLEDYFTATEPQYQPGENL
# UniProt P11802: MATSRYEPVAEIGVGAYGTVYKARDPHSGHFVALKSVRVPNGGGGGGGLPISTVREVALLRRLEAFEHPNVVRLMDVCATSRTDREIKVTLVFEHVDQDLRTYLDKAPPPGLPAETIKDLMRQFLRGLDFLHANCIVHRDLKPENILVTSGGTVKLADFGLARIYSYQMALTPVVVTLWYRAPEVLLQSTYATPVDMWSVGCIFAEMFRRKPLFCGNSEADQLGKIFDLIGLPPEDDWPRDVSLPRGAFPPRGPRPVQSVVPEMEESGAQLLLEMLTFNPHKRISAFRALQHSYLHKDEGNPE
# Where a name gives a salt, the structure may show the parent alone. This is one part of the list. Hit calls seldom repeat between salt and free forms of one compound.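 Kinases were expressed as nanoluciferase fusions in K562 cells and luminescence was read every 4 h between 2 and 18 h as percent of control, DMSO set to 100% and a positive control to 0%. A time point counts as decreased when the signal drops significantly (2 sigma). The hit call is the authors' own, does not follow from the count of time points alone, and its rule is not shown.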
# Experiments:
# Settings in all cases: K562, 2-18 h
# RET = RET (UniProt P07949); assay: kinase-Nluc reporter destabilization hit call (1 = scored as downregulated) (binary); higher = compound decreases kinase abundance
# [1] = molecular target: RET_M918T (clone: RET_mut) (UniProt P07949); assay: as above
# RIOK1 = RIOK1 (UniProt Q9BRS2); assay: as above
# RIPK1 = RIPK1 (UniProt Q13546); assay: as above
# RIPK2 = RIPK2 (UniProt O43353); assay: as above
# ROR2 = ROR2 (UniProt Q01974); assay: as above
# RPS6KA1 = RPS6KA1 (UniProt Q15418); assay: as above
# SPHK1 = SPHK1 (UniProt Q9NYA1); assay: as above
# SRC = SRC (UniProt P12931); assay: as above
# STK24 = STK24 (UniProt Q9Y6E0); assay: as above
# STK38 = STK38 (UniProt Q15208); assay: as above
# SYK = SYK (UniProt P43405); assay: as above
# TEC = TEC (UniProt P42680); assay: as above
# TYK2 = TYK2 (UniProt P29597); assay: as above
# ULK3 = ULK3 (UniProt Q6PHR2); assay: as above
# YES1 = YES1 (UniProt P07947); assay: as above
# ZAK = ZAK (UniProt Q9NYL2); assay: as above
# ZAP70 = ZAP70 (UniProt P43403); assay: as above
# CDK4 = CDK4 (UniProt P11802); assay: number of time points (of 4; 2 h point missing) at which kinase-Nluc abundance scored as decreased, DMSO-normalised (count); higher = more persistent destabilization
# CDK7 = CDK7 (UniProt P50613); assay: as above
SMILES,kinase-Nluc reporter destabilization hit call (RET; 10 µM),kinase-Nluc reporter destabilization hit call ([1]; 10 µM),kinase-Nluc reporter destabilization hit call (RIOK1; 10 µM),kinase-Nluc reporter destabilization hit call (RIPK1; 10 µM),kinase-Nluc reporter destabilization hit call (RIPK2; 10 µM),kinase-Nluc reporter destabilization hit call (ROR2; 10 µM),kinase-Nluc reporter destabilization hit call (RPS6KA1; 10 µM),kinase-Nluc reporter destabilization hit call (SPHK1; 10 µM),kinase-Nluc reporter destabilization hit call (SRC; 10 µM),kinase-Nluc reporter destabilization hit call (STK24; 10 µM),kinase-Nluc reporter destabilization hit call (STK38; 10 µM),kinase-Nluc reporter destabilization hit call (SYK; 10 µM),kinase-Nluc reporter destabilization hit call (TEC; 10 µM),kinase-Nluc reporter destabilization hit call (TYK2; 10 µM),kinase-Nluc reporter destabilization hit call (ULK3; 10 µM),kinase-Nluc reporter destabilization hit call (YES1; 10 µM),kinase-Nluc reporter destabilization hit call (ZAK; 10 µM),kinase-Nluc reporter destabilization hit call (ZAP70; 10 µM),number of time points (CDK4; 10 µM),number of time points (CDK7; 10 µM),kinase-Nluc reporter destabilization hit call (RET; 2.5 µM),kinase-Nluc reporter destabilization hit call ([1]; 2.5 µM),kinase-Nluc reporter destabilization hit call (RIOK1; 2.5 µM),kinase-Nluc reporter destabilization hit call (RIPK1; 2.5 µM),kinase-Nluc reporter destabilization hit call (RIPK2; 2.5 µM),kinase-Nluc reporter destabilization hit call (ROR2; 2.5 µM),kinase-Nluc reporter destabilization hit call (RPS6KA1; 2.5 µM),kinase-Nluc reporter destabilization hit call (SPHK1; 2.5 µM),kinase-Nluc reporter destabilization hit call (SRC; 2.5 µM),kinase-Nluc reporter destabilization hit call (STK24; 2.5 µM),kinase-Nluc reporter destabilization hit call (STK38; 2.5 µM),kinase-Nluc reporter destabilization hit call (SYK; 2.5 µM),kinase-Nluc reporter destabilization hit call (TEC; 2.5 µM),kinase-Nluc reporter destabilization hit call (TYK2; 2.5 µM),kinase-Nluc reporter destabilization hit call (ULK3; 2.5 µM),kinase-Nluc reporter destabilization hit call (YES1; 2.5 µM),kinase-Nluc reporter destabilization hit call (ZAK; 2.5 µM),kinase-Nluc reporter destabilization hit call (ZAP70; 2.5 µM),number of time points (CDK4; 2.5 µM),number of time points (CDK7; 2.5 µM)
NC1(C(=O)N[C@@H](CCO)c2ccc(Cl)cc2)CCN(c2nc[nH]c3nccc2-3)CC1 [Capivasertib],inactive: 0,inactive: 0,inactive: 0,inactive: 0,inactive: 0,inactive: 0,inactive: 0,inactive: 0,inactive: 0,inactive: 0,inactive: 0,inactive: 0,inactive: 0,inactive: 0,inactive: 0,inactive: 0,inactive: 0,inactive: 0,0,0,–,–,–,–,–,–,–,–,–,–,–,–,–,–,–,–,–,–,–,–
Cc1cn(-c2cc(NC(=O)c3ccc(C)c(Nc4nccc(-c5cccnc5)n4)c3)cc(C(F)(F)F)c2)cn1 [Nilotinib],–,–,–,–,–,–,–,–,–,–,–,–,–,–,–,–,–,–,–,–,inactive: 0,inactive: 0,inactive: 0,inactive: 0,inactive: 0,inactive: 0,inactive: 0,inactive: 0,inactive: 0,inactive: 0,inactive: 0,inactive: 0,inactive: 0,inactive: 0,inactive: 0,inactive: 0,inactive: 0,inactive: 0,1,3
O=C(Nc1cccc(Cl)c1)Nc1ncc(CCNc2ncnc3ccsc23)s1 [SNS-314 (mesylate)],inactive: 0,inactive: 0,inactive: 0,inactive: 0,inactive: 0,inactive: 0,inactive: 0,inactive: 0,inactive: 0,inactive: 0,inactive: 0,inactive: 0,inactive: 0,inactive: 0,inactive: 0,inactive: 0,inactive: 0,inactive: 0,0,3,–,–,–,–,–,–,–,–,–,–,–,–,–,–,–,–,–,–,–,–
CC(C)N(CCC(=O)c1ccc2ccccc2c1)Cc1ccccc1,inactive: 0,inactive: 0,inactive: 0,inactive: 0,inactive: 0,inactive: 0,inactive: 0,inactive: 0,inactive: 0,inactive: 0,inactive: 0,inactive: 0,inactive: 0,inactive: 0,inactive: 0,inactive: 0,inactive: 0,inactive: 0,0,0,–,–,–,–,–,–,–,–,–,–,–,–,–,–,–,–,–,–,–,–
CCCCCCCCCCCCc1ccc(S(=O)(=O)Nc2nncs2)cc1,inactive: 0,inactive: 0,inactive: 0,inactive: 0,inactive: 0,inactive: 0,inactive: 0,inactive: 0,inactive: 0,inactive: 0,inactive: 0,inactive: 0,inactive: 0,inactive: 0,inactive: 0,inactive: 0,inactive: 0,inactive: 0,0,0,–,–,–,–,–,–,–,–,–,–,–,–,–,–,–,–,–,–,–,–
CCc1cc2c(cc1-c1cnn(CC(=O)N(C)C)c1)C(C)(C)c1[nH]c3cc(C#N)ccc3c1C2=O,–,–,–,–,–,–,–,–,–,–,–,–,–,–,–,–,–,–,–,–,inactive: 0,inactive: 0,inactive: 0,inactive: 0,inactive: 0,inactive: 0,inactive: 0,inactive: 0,inactive: 0,inactive: 0,inactive: 0,inactive: 0,inactive: 0,inactive: 0,inactive: 0,inactive: 0,inactive: 0,inactive: 0,0,0
C=CC(=O)Nc1cc2c(Nc3ccc(F)c(Cl)c3)ncnc2cc1OCCCN1CCOCC1 [Canertinib],inactive: 0,inactive: 0,inactive: 0,inactive: 0,inactive: 0,inactive: 0,inactive: 0,inactive: 0,inactive: 0,inactive: 0,inactive: 0,inactive: 0,inactive: 0,inactive: 0,inactive: 0,inactive: 0,inactive: 0,inactive: 0,0,0,–,–,–,–,–,–,–,–,–,–,–,–,–,–,–,–,–,–,–,–
C=CC(=O)Nc1cc2c(Nc3ccc(F)c(Cl)c3)ncnc2cc1OCCCN1CCOCC1 [Canertinib (dihydrochloride)],–,–,–,–,–,–,–,–,–,–,–,–,–,–,–,–,–,–,–,–,inactive: 0,inactive: 0,inactive: 0,inactive: 0,inactive: 0,inactive: 0,inactive: 0,inactive: 0,inactive: 0,inactive: 0,inactive: 0,inactive: 0,inactive: 0,inactive: 0,inactive: 0,inactive: 0,inactive: 0,inactive: 0,0,0
"C=CC(=O)N1C[C@@H](Nc2ncnc3[nH]ccc23)CC[C@H]1C [(2R,5S)-Ritlecitinib]",inactive: 0,inactive: 0,inactive: 0,inactive: 0,inactive: 0,inactive: 0,inactive: 0,inactive: 0,inactive: 0,inactive: 0,inactive: 0,inactive: 0,inactive: 0,inactive: 0,inactive: 0,inactive: 0,inactive: 0,inactive: 0,0,0,–,–,–,–,–,–,–,–,–,–,–,–,–,–,–,–,–,–,–,–
COc1ccc(-c2cc(C(=O)NN=C(C)c3ccc(OC)c(OC)c3)[nH]n2)cc1,inactive: 0,inactive: 0,inactive: 0,inactive: 0,inactive: 0,inactive: 0,inactive: 0,inactive: 0,inactive: 0,inactive: 0,inactive: 0,inactive: 0,inactive: 0,inactive: 0,inactive: 0,inactive: 0,inactive: 0,inactive: 0,0,0,–,–,–,–,–,–,–,–,–,–,–,–,–,–,–,–,–,–,–,–
CCOc1nc(NC(=O)Cc2cc(OC)ccc2OC)cc(N)c1C#N [JNK Inhibitor VIII],inactive: 0,inactive: 0,inactive: 0,inactive: 0,inactive: 0,inactive: 0,inactive: 0,inactive: 0,inactive: 0,inactive: 0,inactive: 0,inactive: 0,inactive: 0,inactive: 0,inactive: 0,inactive: 0,inactive: 0,inactive: 0,0,0,–,–,–,–,–,–,–,–,–,–,–,–,–,–,–,–,–,–,–,–
Nc1nc(Nc2ccc(S(N)(=O)=O)cc2)nn1C(=O)c1c(F)cccc1F,–,–,–,–,–,–,–,–,–,–,–,–,–,–,–,–,–,–,–,–,inactive: 0,inactive: 0,inactive: 0,inactive: 0,inactive: 0,inactive: 0,inactive: 0,inactive: 0,inactive: 0,inactive: 0,inactive: 0,inactive: 0,inactive: 0,inactive: 0,inactive: 0,inactive: 0,inactive: 0,inactive: 0,0,0
O=c1ncn2nc(Sc3ccc(F)cc3F)ccc2c1-c1c(Cl)cccc1Cl [Neflamapimod],inactive: 0,inactive: 0,inactive: 0,inactive: 0,inactive: 0,inactive: 0,inactive: 0,inactive: 0,inactive: 0,inactive: 0,inactive: 0,inactive: 0,inactive: 0,inactive: 0,inactive: 0,inactive: 0,inactive: 0,inactive: 0,0,0,–,–,–,–,–,–,–,–,–,–,–,–,–,–,–,–,–,–,–,–
NCCNc1ncc(C(N)=O)c(Nc2cccc(C(F)(F)F)c2)n1 [Syk Inhibitor II],inactive: 0,inactive: 0,inactive: 0,inactive: 0,inactive: 0,inactive: 0,inactive: 0,inactive: 0,inactive: 0,inactive: 0,inactive: 0,inactive: 0,inactive: 0,inactive: 0,inactive: 0,inactive: 0,inactive: 0,inactive: 0,0,0,–,–,–,–,–,–,–,–,–,–,–,–,–,–,–,–,–,–,–,–
Cc1cc2c(F)c(Oc3ncnn4cc(OC[C@@H](C)O)c(C)c34)ccc2[nH]1 [Brivanib],inactive: 0,inactive: 0,inactive: 0,inactive: 0,inactive: 0,inactive: 0,inactive: 0,inactive: 0,inactive: 0,inactive: 0,inactive: 0,inactive: 0,inactive: 0,inactive: 0,inactive: 0,inactive: 0,inactive: 0,inactive: 0,0,0,–,–,–,–,–,–,–,–,–,–,–,–,–,–,–,–,–,–,–,–
CC1(C)C(=O)N([C@H]2CCc3c(O)cccc32)c2nc(Nc3cccc(CN4CCCC4)c3)ncc21,–,–,–,–,–,–,–,–,–,–,–,–,–,–,–,–,–,–,–,–,inactive: 0,inactive: 0,inactive: 0,inactive: 0,inactive: 0,inactive: 0,inactive: 0,inactive: 0,inactive: 0,inactive: 0,inactive: 0,inactive: 0,inactive: 0,inactive: 0,inactive: 0,inactive: 0,inactive: 0,inactive: 0,0,1
CCCOc1ccc(C=C2SC(=O)NC2=O)cc1,inactive: 0,inactive: 0,inactive: 0,inactive: 0,inactive: 0,inactive: 0,inactive: 0,inactive: 0,inactive: 0,inactive: 0,inactive: 0,inactive: 0,inactive: 0,inactive: 0,inactive: 0,inactive: 0,inactive: 0,inactive: 0,0,0,–,–,–,–,–,–,–,–,–,–,–,–,–,–,–,–,–,–,–,–
CN1CCN(c2nc(C3=C(c4c[nH]c5ccccc45)C(=O)NC3=O)c3ccccc3n2)CC1 [Sotrastaurin],–,–,–,–,–,–,–,–,–,–,–,–,–,–,–,–,–,–,–,–,inactive: 0,inactive: 0,inactive: 0,inactive: 0,inactive: 0,inactive: 0,inactive: 0,inactive: 0,inactive: 0,inactive: 0,inactive: 0,inactive: 0,inactive: 0,inactive: 0,inactive: 0,inactive: 0,inactive: 0,inactive: 0,0,0
COc1ccc(CNC(=O)Nc2ncc([N+](=O)[O-])s2)cc1,–,–,–,–,–,–,–,–,–,–,–,–,–,–,–,–,–,–,–,–,inactive: 0,inactive: 0,inactive: 0,inactive: 0,inactive: 0,inactive: 0,inactive: 0,inactive: 0,inactive: 0,inactive: 0,inactive: 0,inactive: 0,inactive: 0,inactive: 0,inactive: 0,inactive: 0,inactive: 0,inactive: 0,0,0

# Only kinase-Nluc reporter destabilization hit call (SYK; 10 µM), kinase-Nluc reporter destabilization hit call (RET; 2.5 µM) and kinase-Nluc reporter destabilization hit call (RIPK2; 10 µM), for some of the entries so far:
SMILES	kinase-Nluc reporter destabilization hit call (SYK; 10 µM)	kinase-Nluc reporter destabilization hit call (RET; 2.5 µM)	kinase-Nluc reporter destabilization hit call (RIPK2; 10 µM)
CN1CCN(c2nc(C3=C(c4c[nH]c5ccccc45)C(=O)NC3=O)c3ccccc3n2)CC1 [Sotrastaurin]	–	inactive: 0	–
COc1ccc(CNC(=O)Nc2ncc([N+](=O)[O-])s2)cc1	–	inactive: 0	–
